Literature values as cited in article PMC9997069 (Molecular Pharmaceutics, 2023).

Amino acid sequences for entries named in this document (tags omitted). Residues count along the entry.
UniProt P02768, 25-609: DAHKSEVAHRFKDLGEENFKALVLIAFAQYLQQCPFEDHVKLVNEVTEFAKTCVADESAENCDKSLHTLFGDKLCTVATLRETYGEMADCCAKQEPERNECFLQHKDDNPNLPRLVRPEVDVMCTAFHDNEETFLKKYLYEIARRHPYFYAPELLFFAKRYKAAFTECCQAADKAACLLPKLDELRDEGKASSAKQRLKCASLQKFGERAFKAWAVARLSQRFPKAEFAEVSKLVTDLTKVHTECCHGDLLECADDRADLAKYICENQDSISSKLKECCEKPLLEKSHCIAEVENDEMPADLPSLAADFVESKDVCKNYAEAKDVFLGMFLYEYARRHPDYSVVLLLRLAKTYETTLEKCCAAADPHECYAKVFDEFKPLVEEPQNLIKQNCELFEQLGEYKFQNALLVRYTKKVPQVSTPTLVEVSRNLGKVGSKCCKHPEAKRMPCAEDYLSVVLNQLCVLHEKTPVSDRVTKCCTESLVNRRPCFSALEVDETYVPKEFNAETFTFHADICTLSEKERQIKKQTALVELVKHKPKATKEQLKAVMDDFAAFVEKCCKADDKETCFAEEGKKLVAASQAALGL

Target: T1, HSA (Homo sapiens, UniProt P02768)
T1 construct: purchased Sigma-Aldrich
Conditions: 310 K; cited from earlier work

NS(=O)(=O)c1cc(C(=O)O)c(NCc2ccco2)cc1Cl [furosemide]
binding constant to HSA: 1.99 × 10^5 M^–1
